In paper PMC10009644:
These are yes or no findings as the source states them, for the method shown. In cells and extracts the contact can be indirect. Some results given as binding are weak or reduced against the parent protein; the word gives no strength.

Amino acid sequences for entries named in this document (tags omitted).
UniProt P40763: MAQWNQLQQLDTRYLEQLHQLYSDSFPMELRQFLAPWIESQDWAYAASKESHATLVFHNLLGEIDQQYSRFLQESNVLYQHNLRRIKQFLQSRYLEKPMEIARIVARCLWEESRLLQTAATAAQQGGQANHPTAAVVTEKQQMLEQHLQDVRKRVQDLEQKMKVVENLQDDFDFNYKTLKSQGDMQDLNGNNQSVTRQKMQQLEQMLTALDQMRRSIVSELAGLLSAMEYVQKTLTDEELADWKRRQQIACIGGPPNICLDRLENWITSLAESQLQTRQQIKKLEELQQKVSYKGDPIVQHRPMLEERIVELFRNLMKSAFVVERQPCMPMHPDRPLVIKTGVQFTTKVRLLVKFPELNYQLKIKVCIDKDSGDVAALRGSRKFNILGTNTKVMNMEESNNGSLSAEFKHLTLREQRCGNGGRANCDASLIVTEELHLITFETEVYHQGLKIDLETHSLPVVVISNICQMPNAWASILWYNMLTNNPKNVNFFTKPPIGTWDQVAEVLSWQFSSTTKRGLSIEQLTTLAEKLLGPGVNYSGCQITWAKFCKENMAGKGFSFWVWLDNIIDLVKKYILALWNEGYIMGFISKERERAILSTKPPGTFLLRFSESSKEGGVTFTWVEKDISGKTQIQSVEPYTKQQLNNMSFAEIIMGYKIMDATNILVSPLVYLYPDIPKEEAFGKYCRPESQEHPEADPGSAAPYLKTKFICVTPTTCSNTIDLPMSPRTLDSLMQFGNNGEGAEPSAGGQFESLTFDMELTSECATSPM
UniProt O75530: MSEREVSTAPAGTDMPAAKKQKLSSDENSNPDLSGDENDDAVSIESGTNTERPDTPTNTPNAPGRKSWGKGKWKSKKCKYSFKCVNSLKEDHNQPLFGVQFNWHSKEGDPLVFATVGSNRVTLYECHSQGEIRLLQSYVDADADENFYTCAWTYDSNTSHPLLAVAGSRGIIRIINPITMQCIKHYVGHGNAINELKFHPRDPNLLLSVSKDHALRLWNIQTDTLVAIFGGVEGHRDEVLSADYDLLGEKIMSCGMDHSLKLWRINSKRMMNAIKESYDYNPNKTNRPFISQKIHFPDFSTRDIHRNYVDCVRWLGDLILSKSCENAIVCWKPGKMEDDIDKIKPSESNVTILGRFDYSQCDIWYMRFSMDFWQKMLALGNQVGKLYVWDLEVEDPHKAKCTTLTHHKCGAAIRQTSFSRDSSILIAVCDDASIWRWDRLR

Molecular target: HA-tagged STAT3 (signal transducer and activator of transcription 3) (UniProt P40763)
Experiment: co-IP; HEK293 cells transfected with HA- and FLAG-tagged constructs; lysed in Pierce IP Lysis Buffer; IP with anti-FLAG (anti-DYKDDDDK magnetic agarose, 4°C overnight) or anti-HA antibody, washed 3x with cold PBS, immunoblot for the other tag

Q: Which binding does the source give for “FLAG-tagged full-length EED (from UniProt O75530 1-441)” here?
A: binds
